Reference: PubChem BioAssay AID493014 (National Center for Advancing Translational Sciences (NCATS), 2011)
The other results are listed elsewhere or left out. Further columns of the screen follow, without active or inactive calls. Most of these compounds were active or inconclusive in the main read-out, so they are no random draw. Words in brackets tell the shape of the fitted curve; partial curves, single points and poor fits give uncertain potencies.

Assay: qHTS Assay to Find Inhibitors of Chronic Active B-Cell Receptor Signaling
Conditions: ABC-DLBCL IkBa-CBG/CBR reporter, luminescence ratio (green luciferase fused to IkBa over red control in TMD8 lymphoma cells), 4 h
In short: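 TMD8 human ABC-DLBCL cells with doxycycline-inducible IκBα–green luciferase fusion and unfused red luciferase, in 0.5% FBS medium; compounds up to 46 uM, 4 h at 37C. Green/red luminescence ratio, filter-overlap corrected, fitted to concentration-response curves.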

[1] = measured here: CBR red luminescence, cell number
[2] = measured here: IkBa-CBG green luminescence

SMILES	AC50 [1]	AC50 [2]
COc1ccc2nc(C)cc(N/N=C/c3cccc(OC)c3O)c2c1	11.2 µM [falling, partial curve]	8.91 µM [rising, partial curve, poor fit]
O=C(Cn1ccc(NC(=O)OCc2ccccc2)nc1=O)NCc1ccccn1	0.0326 µM [rising, full curve, poor fit]	
O=C(C1=NN[C@@H]2C(=O)N(c3cccc(F)c3)C(=O)[C@H]12)c1cnccn1	35.5 µM [falling, single point]	
COc1cccc(NC(=O)CS(=O)(=O)c2cn(CC(=O)N3CCOCC3)c3ccccc23)c1	11.2 µM [falling, single point]	
Cc1ccc(NC(=O)c2cc(-c3ccccc3O)n[nH]2)cc1Cl	1.12 µM [falling, partial curve, poor fit]	
COc1cc(C(=O)N/N=C(\C)c2ccccn2)cc(OC)c1OC	5.01 µM [rising, partial curve, poor fit]	
CCCCNc1nc(Nc2ccc(C)c(Cl)c2)c2cnn(C)c2n1	0.562 µM [falling, full curve, poor fit]	
O=C(NCc1ccccn1)c1cc2ccccc2oc1=O	20.6 µM [falling, single point]	
Cc1cc(C)nc(SSc2nc(C)cc(C)n2)n1		25.1 µM [falling, single point]
O=C(COC(=O)c1n[nH]c(=O)c2ccccc12)NCc1ccccc1	2.91 µM [rising, single point]	
Cc1nn(-c2ccccc2)c(C)c1/C=N/NC(=O)c1cc(-c2ccccc2)n[nH]1	29.1 µM [falling, single point]	4.11 µM [falling, full curve]
O=C1/C(=C/c2ccccc2[N+](=O)[O-])COc2ccccc21	12.6 µM [falling, partial curve, poor fit]	
O=C(COc1ccc2ccccc2c1Br)NC(=S)Nc1cccc(CO)c1	10.3 µM [rising, partial curve]	
O=C(NCC(=O)N(Cc1ccco1)C(C(=O)NC1CCCCC1)c1cccnc1)c1cccs1 (stereo not drawn)	29.1 µM [rising, partial curve, poor fit]	
COc1ccccc1CCC(=O)NNC(=O)c1ccccc1	12.6 µM [falling, partial curve]	
COC(=O)c1ccccc1NC(=O)Cn1c(-c2nonc2N)nc2ccccc21	3.66 µM [rising, full curve]	2.91 µM [falling, full curve]
C=C1CCC[C@]2(C)C[C@H]3OC(=O)C(CNCCN(C)C)[C@H]3CC12 (stereo partly drawn)	3.55 µM [falling, full curve, poor fit]	
CN(C)CCC1Sc2ccccc2Oc2ccccc21 (stereo not drawn)	29.1 µM [falling, single point]	
Cc1nc(-c2cc(C#N)c(Sc3ccc(Cl)cc3Cl)nc2C)cs1	14.1 µM [falling, partial curve, poor fit]	
CCc1ccc(N2CC(C(=O)OC)CC2=O)cc1 (stereo not drawn)	10 µM [rising, partial curve]	
CCCC1Nc2ccc(C(=O)O)cc2C2C=CCC12 (stereo not drawn)	18.4 µM [falling, partial curve]	

4 compounds already listed, ordered by molar mass, largest number first.
SMILES	AC50 [1]	AC50 [2]
O=C(NCC(=O)N(Cc1ccco1)C(C(=O)NC1CCCCC1)c1cccnc1)c1cccs1 (stereo not drawn)	29.1 µM [rising, partial curve, poor fit]	
O=C(C1=NN[C@@H]2C(=O)N(c3cccc(F)c3)C(=O)[C@H]12)c1cnccn1	35.5 µM [falling, single point]	
COc1ccccc1CCC(=O)NNC(=O)c1ccccc1	12.6 µM [falling, partial curve]	
O=C(NCc1ccccn1)c1cc2ccccc2oc1=O	20.6 µM [falling, single point]	

Additional compounds.

SMILES	AC50 [1]	AC50 [2]
O=C(NC(=S)Nc1cccc(S(=O)(=O)NC2=NCCC2)c1)c1cc(-c2ccco2)nc2ccccc12	35.5 µM [rising, single point]	25.1 µM [falling, single point]
CC(C)=NOC(=O)c1ccc(-c2ccccc2)cc1	13 µM [rising, partial curve, poor fit]	
Cc1cc(SCC(=O)Nc2ccccc2)n2ncc(-c3ccccc3)c2n1	0.316 µM [falling, full curve, poor fit]	
O=S(=O)(c1cccs1)N1CCN(Cc2ccccc2)CC1	0.398 µM [rising, full curve, poor fit]	
O=C(NCc1ccccn1)/C(=N/O)c1ccccc1	20 µM [falling, single point]	
O=S(=O)(Nc1ncccn1)c1ccc(NS(=O)(=O)c2cc(Cl)ccc2Cl)cc1	11.2 µM [rising, partial curve, poor fit]	
c1cc2c(cc1C1=NNC(=NC3CC3)SC1)OCCO2	11.2 µM [falling, partial curve, poor fit]	17.8 µM [falling, partial curve, poor fit]
COc1ccc(-n2ncc3c(Nc4cccc(C)c4)ncnc32)cc1	20.6 µM [rising, single point]	
COc1cccc(C(=O)Nc2ccc(NC(=O)C(C)(C)C)cn2)c1	0.291 µM [falling, full curve, poor fit]	
C=CCn1cccc(C(=O)Nc2cc(OC)cc(OC)c2)c1=O	35.5 µM [falling, single point]	
COc1ccc(CCN2C(=NC(=O)CC(C)C)SC3CS(=O)(=O)CC32)cc1 (stereo not drawn)	29.1 µM [rising, single point]	
Cc1ccccc1NC(=O)CSc1nc2ncc(Cl)cc2[nH]1	14.1 µM [falling, partial curve, poor fit]	
CCOc1ccccc1NC(=O)c1cc2ccccc2oc1=O	0.794 µM [falling, full curve]	
O=C(COc1ccccc1O)Nc1ccc(Cl)cc1	8.91 µM [falling, partial curve]	
O=C(c1cc(COc2c(F)cccc2F)on1)N1CCC(c2ccccc2Cl)C1 (stereo not drawn)	5.62 µM [rising, single point]	
O=C(NCC(=O)N1CCN(c2ccccc2O)CC1)c1ccccc1	8.91 µM [falling, partial curve]	
CCOc1cccc(/C=N/NS(=O)(=O)c2ccc(C)c([N+](=O)[O-])c2)c1O	6.31 µM [falling, full curve]	
O=C(CN1C(=O)NC2(CCOc3ccccc32)C1=O)c1cccs1 (stereo not drawn)	8.2 µM [rising, partial curve, poor fit]	
O=C(Nc1ncccc1Cl)c1cccc(F)c1	6.51 µM [rising, single point]	
N=C1/C(=C\c2coc3ccc(O)cc3c2=O)C(=O)N=C2SC=CN12	1.41 µM [falling, full curve, poor fit]	
CCOc1ccc(NC(=O)C(c2ccccn2)N(C(=O)CCl)c2ccc(F)cc2)cc1 (stereo not drawn)	1.84 µM [falling, full curve]	

SMILES	AC50 [1]	AC50 [2]
Cc1onc(-c2c(F)cccc2Cl)c1C(=O)Nc1nnc(-c2ccccc2)s1	2.06 µM [rising, full curve, poor fit]	
Cc1cc(SCC(=O)NC(=O)NCc2ccco2)nc2ccccc12	15.8 µM [falling, single point]	
COc1ccc(C)cc1Nc1nc(-c2c[nH]c3ccccc23)cs1	8.2 µM [falling, partial curve]	
CCN(CC)CCCNC(=O)c1cc(-c2cccc(Cl)c2)on1	3.16 µM [falling, full curve, poor fit]	
CN1CCN(c2sc(S(C)(=O)=O)nc2S(=O)(=O)c2ccc(Cl)cc2)CC1	35.5 µM [falling, single point]	
Cn1c(=O)c2cn(-c3ccc4c(c3)OCCO4)cc2n(C)c1=O	29.1 µM [falling, single point]	
Cc1ccc(SCc2cc(=O)c3c(=O)n(-c4ccccc4)[nH]c3[nH]2)cc1	0.891 µM [falling, partial curve, poor fit]	
O=C(NCCc1ccccc1)c1oc2ccccc2c1COc1ccccc1	20.6 µM [falling, partial curve, poor fit]	
C=CCN1CC(=O)N2C(C)c3[nH]c4ccccc4c3C[C@H]2C1=O (stereo partly drawn)	3.16 µM [rising, single point]	
Cn1nccc1NC(=O)Nc1cccc(Cl)c1Cl	3.98 µM [falling, full curve, poor fit]	
CCOC(=O)C1=c2/c(=C/c3ccccc3OC)c(N)c(C#N)n2C(=O)C(c2ccccc2OC)S1 (stereo not drawn)	3.66 µM [falling, full curve, poor fit]	
CC(C)(C)c1ccc(C(=O)C=[N+]=[N-])cc1	23.1 µM [rising, partial curve, poor fit]	
COc1cc2c(cc1C1NC(=S)NC(C)=C1C(N)=O)CCCC2 (stereo not drawn)	11.2 µM [rising, partial curve]	7.08 µM [falling, partial curve]
CCSc1nnc(NC(=O)NC(C)(C(F)(F)F)C(F)(F)F)s1	20.6 µM [rising, partial curve]	
Cc1cc(C(=O)COc2ccccc2C(N)=O)c(C)n1C1CC1	35.5 µM [rising, single point]	
CC(=O)Nc1ccc(NC(=O)c2cc(-c3cc(C)c(C)cc3O)n[nH]2)cc1	0.501 µM [falling, full curve, poor fit]	
CC1=C(C)C(=O)OC(C(C)C2CCC3C4CC=C5CC(OC6OC(COC7OC(CO)C(O)C(O)C7O)C(O)C(O)C6O)CC(O)C5(C)C4CCC23C)C1 (stereo not drawn)	15.8 µM [falling, partial curve, poor fit]	
Cn1c(=O)c(C(=O)NCCO)c(O)c2ccccc21	11.6 µM [falling, partial curve, poor fit]	
COc1cccc(C(=O)Nc2c(F)c(F)c(F)c(F)c2F)c1	5.8 µM [falling, full curve]	
O=C(Nc1nccs1)c1cc2sccc2n1Cc1ccc(F)cc1	31.6 µM [rising, single point]	
